According to article PMC2813878:
Results are given in words; binding and its absence hold for the method and conditions named. In cells and extracts the contact can be indirect. Some results given as binding are weak or reduced against the parent protein; the word gives no strength. Sequences can lack the tags named with a protein.

The chains behind the UniProt entries cited, without tags or fusion partners. Residues count along the entry.
UniProt Q15303, residues 26-1308: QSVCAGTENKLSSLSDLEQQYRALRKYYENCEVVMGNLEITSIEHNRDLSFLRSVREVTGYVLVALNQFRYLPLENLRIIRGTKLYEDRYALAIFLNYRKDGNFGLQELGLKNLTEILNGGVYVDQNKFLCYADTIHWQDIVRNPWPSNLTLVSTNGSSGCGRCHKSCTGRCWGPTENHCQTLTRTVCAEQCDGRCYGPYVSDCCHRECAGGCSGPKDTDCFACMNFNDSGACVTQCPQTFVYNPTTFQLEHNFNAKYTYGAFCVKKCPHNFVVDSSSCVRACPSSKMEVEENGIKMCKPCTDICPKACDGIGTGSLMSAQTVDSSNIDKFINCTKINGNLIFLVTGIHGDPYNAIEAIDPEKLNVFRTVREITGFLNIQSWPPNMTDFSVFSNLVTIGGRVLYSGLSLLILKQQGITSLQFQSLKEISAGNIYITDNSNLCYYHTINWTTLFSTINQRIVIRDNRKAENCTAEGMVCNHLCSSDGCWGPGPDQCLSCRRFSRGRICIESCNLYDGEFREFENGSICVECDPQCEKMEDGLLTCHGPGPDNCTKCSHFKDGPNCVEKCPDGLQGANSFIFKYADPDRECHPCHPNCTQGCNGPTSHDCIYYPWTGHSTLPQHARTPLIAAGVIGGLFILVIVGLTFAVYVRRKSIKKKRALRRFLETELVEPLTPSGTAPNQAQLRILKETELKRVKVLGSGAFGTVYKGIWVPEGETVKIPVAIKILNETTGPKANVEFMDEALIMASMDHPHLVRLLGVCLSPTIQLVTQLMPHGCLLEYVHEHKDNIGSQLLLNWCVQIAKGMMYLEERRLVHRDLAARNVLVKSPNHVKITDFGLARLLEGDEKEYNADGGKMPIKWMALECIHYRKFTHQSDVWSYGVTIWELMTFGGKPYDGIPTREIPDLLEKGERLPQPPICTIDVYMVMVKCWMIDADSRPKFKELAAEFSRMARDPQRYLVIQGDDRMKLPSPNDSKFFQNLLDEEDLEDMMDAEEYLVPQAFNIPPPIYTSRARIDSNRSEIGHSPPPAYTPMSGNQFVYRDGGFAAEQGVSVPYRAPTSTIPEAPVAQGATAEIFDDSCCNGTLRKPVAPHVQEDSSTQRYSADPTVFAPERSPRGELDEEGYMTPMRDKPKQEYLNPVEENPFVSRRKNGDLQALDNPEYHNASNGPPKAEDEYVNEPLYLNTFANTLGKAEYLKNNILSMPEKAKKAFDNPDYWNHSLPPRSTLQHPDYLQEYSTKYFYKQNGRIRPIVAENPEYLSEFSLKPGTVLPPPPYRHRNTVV

Assays:
[1] = target: T1, Lrig3-flag (mouse Lrig3, full length cDNA in pcDNA3.1+, flag tag after the signal sequence) (mouse) (UniProt Q6P1C6); experiment: co-IP; HEK293T cells co-transfected with an ErbB receptor and flag-tagged Lrig1 or Lrig3; lysis in 20 mM Tris pH 7.4, 150 mM NaCl, 1% TritonX-100; immunoprecipitated with agarose-conjugated anti-flag (M2) overnight at 4°C, blotted with anti-ErbB; cells in the absence or presence of ligand (200 ng/ml EGF or 1 nM NRG1, 10 min)
T1 sequence: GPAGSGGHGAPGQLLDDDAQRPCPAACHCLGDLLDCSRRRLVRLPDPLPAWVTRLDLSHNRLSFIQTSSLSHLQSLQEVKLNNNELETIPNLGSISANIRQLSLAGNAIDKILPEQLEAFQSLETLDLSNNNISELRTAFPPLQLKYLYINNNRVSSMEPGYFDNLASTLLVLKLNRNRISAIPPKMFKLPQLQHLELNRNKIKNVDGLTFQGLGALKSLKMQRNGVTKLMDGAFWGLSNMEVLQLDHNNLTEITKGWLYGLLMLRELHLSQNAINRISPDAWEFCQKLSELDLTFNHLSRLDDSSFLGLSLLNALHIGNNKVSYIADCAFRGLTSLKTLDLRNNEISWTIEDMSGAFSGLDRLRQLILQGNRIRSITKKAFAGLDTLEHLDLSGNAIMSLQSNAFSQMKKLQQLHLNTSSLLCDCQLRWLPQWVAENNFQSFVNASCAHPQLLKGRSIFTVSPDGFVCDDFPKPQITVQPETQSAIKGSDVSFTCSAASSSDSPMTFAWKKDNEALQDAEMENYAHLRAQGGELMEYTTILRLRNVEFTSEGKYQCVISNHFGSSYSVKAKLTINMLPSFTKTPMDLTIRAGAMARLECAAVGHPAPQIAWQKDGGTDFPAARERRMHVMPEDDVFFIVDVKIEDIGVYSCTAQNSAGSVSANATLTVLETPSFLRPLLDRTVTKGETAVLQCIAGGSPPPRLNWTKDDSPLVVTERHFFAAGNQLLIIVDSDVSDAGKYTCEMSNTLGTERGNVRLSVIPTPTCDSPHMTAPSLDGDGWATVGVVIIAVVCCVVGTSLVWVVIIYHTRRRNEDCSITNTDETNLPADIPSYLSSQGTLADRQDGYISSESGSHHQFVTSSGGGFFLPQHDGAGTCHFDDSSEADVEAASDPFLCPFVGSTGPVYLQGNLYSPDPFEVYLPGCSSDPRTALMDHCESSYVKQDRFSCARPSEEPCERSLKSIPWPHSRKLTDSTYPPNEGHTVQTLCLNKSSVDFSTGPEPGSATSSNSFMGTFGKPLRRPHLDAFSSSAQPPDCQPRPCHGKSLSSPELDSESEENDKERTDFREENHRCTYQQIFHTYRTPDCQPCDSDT

[2] = target: T2, human N'flag-Lrig1 (human) (UniProt Q96JA1); experiment: as above
T2 sequence: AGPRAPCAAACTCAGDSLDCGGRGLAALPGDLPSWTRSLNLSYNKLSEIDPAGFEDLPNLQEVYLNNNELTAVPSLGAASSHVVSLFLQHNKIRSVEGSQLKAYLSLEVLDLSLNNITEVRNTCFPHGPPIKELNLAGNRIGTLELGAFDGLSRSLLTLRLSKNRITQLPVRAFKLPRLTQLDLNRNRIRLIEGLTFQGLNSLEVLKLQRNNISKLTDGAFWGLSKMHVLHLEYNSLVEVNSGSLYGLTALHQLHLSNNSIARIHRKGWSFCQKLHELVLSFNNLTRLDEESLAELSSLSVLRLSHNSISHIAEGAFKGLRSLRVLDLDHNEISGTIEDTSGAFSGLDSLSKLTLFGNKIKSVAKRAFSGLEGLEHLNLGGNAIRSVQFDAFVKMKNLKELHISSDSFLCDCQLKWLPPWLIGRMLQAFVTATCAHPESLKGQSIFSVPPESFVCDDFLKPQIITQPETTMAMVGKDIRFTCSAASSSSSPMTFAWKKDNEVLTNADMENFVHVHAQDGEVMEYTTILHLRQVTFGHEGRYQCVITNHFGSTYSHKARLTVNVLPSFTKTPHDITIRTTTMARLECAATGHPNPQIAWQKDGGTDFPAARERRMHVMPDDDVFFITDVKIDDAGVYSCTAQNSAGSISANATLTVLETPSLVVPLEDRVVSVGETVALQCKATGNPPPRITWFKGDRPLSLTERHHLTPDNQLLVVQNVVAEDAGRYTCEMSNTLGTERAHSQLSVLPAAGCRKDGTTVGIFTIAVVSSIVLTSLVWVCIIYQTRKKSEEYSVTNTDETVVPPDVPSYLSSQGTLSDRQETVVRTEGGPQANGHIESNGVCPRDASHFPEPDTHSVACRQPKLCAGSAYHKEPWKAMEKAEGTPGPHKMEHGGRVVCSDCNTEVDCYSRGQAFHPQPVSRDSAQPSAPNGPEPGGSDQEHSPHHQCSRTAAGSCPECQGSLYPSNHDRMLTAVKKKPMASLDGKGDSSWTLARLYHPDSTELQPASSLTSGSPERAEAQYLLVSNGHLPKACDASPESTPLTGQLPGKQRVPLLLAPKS

| binding [1] | binding [2] | Substance |
| --- | --- | --- |
| binds | – | EGFR (from UniProt P00533 25-1210) (receptor) |
| binds | binds | ErbB2 (from UniProt P04626 23-1255) (receptor) |
| binds | binds | ErbB4 (from UniProt Q15303 26-1308) (receptor) |
